Test [1] has as its target hAng2-Fc (Beijing Sino Biological, Catalog No. 10691-H02H) (human) (UniProt O15123). Kind of test: flow cytometry blocking: binding of hAng2-Fc to Tie2 on 293-Tie2 cells.
In test [2] the target is hAng2-biotin (R&D, Catalog No. BT623B/CF) (human) (UniProt O15123). Kind of test: blocking ELISA: hTie2 coated, binding of biotinylated hAng2. (In an ELISA, binding on a coated surface is turned into a signal by an enzyme label.)
For test [3] the target is unchanged. Kind of test: condition: log about 0.7 (ug/ml), i.e. about 5 ug/ml; blocking ELISA: Tie2-Fc coated, binding of hAng2-biotin.
Test [4] deals with biotin-labeled VEGF A165 (ACRO, Catalog No. VE5-H8210) (human) (UniProt P15692). As to the kind of experiment: condition: log about 2.2 (ug/ml), i.e. about 150 ug/ml; blocking ELISA: biotin VEGF A165 on streptavidin, binding of VEGFR-Fc.
Test [5] addresses hAng2-biotin (R&D, Catalog No. BT623B/CF) (human) (UniProt O15123). As to the kind of experiment: blocking ELISA: Tie2-Fc coated, binding of hAng2-biotin blocked.

The chains behind the UniProt entries cited, without tags or fusion partners. Where a name states a change or a piece, a line headed by the entry shows the natural chain unless it says otherwise. A line that says so, or that is headed by a name, gives the form on record, which may keep a tag or linker. Residues count along the entry.
UniProt O15123: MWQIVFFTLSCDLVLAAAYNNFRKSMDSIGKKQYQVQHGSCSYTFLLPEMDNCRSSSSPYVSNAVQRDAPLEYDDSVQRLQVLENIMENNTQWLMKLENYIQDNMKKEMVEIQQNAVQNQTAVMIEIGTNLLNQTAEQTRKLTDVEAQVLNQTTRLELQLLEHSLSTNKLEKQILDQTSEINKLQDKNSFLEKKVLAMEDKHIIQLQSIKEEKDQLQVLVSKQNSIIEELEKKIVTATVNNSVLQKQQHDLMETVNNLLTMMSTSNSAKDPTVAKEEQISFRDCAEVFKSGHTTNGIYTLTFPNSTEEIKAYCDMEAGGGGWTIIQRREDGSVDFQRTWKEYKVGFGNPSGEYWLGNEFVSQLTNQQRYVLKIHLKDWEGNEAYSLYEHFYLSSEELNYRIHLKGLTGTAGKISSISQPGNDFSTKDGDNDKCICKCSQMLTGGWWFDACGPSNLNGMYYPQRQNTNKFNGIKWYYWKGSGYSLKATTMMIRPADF
hAng2-Fc (Beijing Sino Biological, Catalog No. 10691-H02H): residues 19-496 of O15123
hAng2-biotin (R&D, Catalog No. BT623B/CF): residues 68-496 of O15123
biotin-labeled VEGF A165 (ACRO, Catalog No. VE5-H8210) (P15692, form named): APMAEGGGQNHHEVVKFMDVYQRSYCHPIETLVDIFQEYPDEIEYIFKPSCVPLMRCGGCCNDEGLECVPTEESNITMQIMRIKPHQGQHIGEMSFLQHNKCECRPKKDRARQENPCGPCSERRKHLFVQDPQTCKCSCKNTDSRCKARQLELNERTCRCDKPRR

No constants are given. Whether binding was seen depends on the method and setting. Some entries that bind do so weakly or less than the wild type.

B1: IgG (antibody, V domains shown)
VH: EVRLLESGGGLVQPGGSLRLSCAASGFTFSNYAMGWVRQAPGKGLEWVSAISGSGGSTYYADSVKGRFTTSRDDSKNALYLQMNSLRAEDTAVYYCARGGPGWYAADVWGQGTTVTVSS
VL: DIQMTQSPSSLSASVGDRVTITCRASQSISSYLNWYQQKPGKAPKLLIYAASSLQSGVPSRFSGSGSGTDFTLTISSLQPEDFATYYCQQADLPAFAFGGGTKVEIKR
notes: also called Negative control IgG
Consider B1, for which the binding entry in test [1] is reported as “no binding (tested: log about 2.6 (nM), i.e. about 400 nM)”; in test [2], “no binding (tested: log about 2.5 (nM), i.e. about 300 nM)”; in test [3], “no binding”; in test [4], “no binding”.

B2: LA24C11.10 (Ang2 VHH) (VHH)
VHH: EVQLLESGGGLVQPGGSLRLSCAASGFALDYYAIGWFRQAPGKGLEGVSCISSGEGSTYYADSVKGRFTISRDNSKNTVYLQMNSLRAEDTAVYYCATDSRGDDVACEGLRRNEYDYWGQGTLVTVSS
notes: Humanized anti-Ang2 VHH; also called hz24C11.10; LA24C11.0
B2: in test [5], the binding entry is “binds”.

For the origin of these results see patent publication US20260274933A1 (Innovent, published 2026).
